# Experimental data: the supplement of paper PMC12819154, “High-throughput peptide-centric local stability assay extends protein–ligand identification to membrane proteins, tissues and bacteria” (Nature Structural & Molecular Biology, 2025)
# Protein sequences, listed by entry. Tags and fused reporters are not part of them. Lines headed by an entry give the natural chain unless they say otherwise; changes in a name come on top.
# UniProt A6H5Z3: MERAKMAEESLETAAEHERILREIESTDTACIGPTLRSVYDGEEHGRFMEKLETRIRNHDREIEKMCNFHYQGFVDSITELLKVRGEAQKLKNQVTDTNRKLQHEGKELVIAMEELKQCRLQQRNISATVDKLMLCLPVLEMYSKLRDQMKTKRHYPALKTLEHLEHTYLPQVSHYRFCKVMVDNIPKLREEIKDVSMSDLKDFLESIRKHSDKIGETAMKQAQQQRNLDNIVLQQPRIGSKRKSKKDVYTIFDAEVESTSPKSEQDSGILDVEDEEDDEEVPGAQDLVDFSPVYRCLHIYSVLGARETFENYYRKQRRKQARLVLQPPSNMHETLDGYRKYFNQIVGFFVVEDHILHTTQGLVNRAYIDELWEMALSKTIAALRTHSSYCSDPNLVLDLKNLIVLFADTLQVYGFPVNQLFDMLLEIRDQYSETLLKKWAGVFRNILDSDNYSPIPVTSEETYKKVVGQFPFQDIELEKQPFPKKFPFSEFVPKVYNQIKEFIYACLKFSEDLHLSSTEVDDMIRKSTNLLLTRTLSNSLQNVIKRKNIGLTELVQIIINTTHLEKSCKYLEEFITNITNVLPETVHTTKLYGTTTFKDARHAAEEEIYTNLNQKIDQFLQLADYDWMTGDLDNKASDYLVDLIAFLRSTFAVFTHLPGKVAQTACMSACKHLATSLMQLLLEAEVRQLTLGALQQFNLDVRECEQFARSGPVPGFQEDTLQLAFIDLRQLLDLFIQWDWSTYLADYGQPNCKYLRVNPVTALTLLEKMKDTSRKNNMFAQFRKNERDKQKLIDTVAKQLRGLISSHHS
# UniProt A2A8L1: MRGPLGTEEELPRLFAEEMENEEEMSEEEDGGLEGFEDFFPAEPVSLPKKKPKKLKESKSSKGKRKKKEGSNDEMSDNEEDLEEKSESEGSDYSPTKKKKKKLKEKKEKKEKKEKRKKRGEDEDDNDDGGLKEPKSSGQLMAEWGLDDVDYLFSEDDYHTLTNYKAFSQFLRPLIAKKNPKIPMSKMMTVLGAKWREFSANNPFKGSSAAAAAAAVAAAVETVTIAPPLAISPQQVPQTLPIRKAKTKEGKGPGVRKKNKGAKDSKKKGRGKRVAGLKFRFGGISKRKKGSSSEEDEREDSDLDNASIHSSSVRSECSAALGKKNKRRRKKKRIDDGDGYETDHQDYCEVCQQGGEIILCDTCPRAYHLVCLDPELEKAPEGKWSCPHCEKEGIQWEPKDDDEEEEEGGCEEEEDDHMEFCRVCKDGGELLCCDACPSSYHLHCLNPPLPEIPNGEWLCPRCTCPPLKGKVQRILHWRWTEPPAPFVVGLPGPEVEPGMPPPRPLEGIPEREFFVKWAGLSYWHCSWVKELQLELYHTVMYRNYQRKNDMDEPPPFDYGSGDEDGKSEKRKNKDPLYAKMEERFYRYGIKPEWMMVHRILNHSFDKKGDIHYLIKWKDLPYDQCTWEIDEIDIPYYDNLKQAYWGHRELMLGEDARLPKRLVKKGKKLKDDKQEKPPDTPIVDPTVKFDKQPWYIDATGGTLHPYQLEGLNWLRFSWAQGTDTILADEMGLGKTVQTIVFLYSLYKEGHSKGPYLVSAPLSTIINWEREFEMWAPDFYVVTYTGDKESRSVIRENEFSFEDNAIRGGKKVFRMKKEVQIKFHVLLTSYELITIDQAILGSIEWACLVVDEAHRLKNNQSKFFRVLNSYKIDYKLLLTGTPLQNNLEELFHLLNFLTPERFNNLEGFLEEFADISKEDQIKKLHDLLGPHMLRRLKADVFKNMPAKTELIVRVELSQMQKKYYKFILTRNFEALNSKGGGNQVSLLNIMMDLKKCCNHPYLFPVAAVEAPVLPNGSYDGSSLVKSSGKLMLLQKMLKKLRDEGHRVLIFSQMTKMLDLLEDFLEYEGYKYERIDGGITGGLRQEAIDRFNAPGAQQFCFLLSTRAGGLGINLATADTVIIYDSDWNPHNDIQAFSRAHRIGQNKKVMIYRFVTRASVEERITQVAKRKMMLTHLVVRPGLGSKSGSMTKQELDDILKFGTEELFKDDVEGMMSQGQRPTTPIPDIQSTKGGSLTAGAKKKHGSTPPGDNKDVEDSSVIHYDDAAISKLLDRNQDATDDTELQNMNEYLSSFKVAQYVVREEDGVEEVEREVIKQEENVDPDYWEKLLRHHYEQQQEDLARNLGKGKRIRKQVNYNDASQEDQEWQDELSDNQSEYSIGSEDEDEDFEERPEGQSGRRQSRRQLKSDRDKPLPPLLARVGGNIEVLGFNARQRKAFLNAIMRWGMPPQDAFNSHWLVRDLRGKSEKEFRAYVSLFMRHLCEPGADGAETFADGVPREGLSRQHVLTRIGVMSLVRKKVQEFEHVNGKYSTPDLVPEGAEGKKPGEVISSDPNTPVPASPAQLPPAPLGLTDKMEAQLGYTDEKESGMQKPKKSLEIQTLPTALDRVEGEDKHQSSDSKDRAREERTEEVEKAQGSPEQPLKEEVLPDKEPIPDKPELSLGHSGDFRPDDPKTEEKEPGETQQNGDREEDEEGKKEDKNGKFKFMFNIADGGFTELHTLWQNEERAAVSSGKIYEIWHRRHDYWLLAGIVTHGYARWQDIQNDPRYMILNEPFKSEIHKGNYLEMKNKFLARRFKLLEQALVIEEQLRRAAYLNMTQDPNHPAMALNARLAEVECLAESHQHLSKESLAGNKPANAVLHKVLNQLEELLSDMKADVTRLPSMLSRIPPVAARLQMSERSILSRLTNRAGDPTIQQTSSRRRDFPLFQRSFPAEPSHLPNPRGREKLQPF
# UniProt B1AUE5: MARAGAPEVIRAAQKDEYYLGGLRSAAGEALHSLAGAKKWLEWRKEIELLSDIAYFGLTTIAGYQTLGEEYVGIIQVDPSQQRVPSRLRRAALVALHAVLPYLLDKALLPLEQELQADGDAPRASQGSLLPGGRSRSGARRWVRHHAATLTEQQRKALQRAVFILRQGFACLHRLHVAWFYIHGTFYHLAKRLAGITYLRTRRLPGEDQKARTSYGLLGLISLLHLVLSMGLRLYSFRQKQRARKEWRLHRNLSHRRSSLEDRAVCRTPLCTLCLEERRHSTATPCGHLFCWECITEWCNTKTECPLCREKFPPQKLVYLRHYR
# UniProt B1AQJ2: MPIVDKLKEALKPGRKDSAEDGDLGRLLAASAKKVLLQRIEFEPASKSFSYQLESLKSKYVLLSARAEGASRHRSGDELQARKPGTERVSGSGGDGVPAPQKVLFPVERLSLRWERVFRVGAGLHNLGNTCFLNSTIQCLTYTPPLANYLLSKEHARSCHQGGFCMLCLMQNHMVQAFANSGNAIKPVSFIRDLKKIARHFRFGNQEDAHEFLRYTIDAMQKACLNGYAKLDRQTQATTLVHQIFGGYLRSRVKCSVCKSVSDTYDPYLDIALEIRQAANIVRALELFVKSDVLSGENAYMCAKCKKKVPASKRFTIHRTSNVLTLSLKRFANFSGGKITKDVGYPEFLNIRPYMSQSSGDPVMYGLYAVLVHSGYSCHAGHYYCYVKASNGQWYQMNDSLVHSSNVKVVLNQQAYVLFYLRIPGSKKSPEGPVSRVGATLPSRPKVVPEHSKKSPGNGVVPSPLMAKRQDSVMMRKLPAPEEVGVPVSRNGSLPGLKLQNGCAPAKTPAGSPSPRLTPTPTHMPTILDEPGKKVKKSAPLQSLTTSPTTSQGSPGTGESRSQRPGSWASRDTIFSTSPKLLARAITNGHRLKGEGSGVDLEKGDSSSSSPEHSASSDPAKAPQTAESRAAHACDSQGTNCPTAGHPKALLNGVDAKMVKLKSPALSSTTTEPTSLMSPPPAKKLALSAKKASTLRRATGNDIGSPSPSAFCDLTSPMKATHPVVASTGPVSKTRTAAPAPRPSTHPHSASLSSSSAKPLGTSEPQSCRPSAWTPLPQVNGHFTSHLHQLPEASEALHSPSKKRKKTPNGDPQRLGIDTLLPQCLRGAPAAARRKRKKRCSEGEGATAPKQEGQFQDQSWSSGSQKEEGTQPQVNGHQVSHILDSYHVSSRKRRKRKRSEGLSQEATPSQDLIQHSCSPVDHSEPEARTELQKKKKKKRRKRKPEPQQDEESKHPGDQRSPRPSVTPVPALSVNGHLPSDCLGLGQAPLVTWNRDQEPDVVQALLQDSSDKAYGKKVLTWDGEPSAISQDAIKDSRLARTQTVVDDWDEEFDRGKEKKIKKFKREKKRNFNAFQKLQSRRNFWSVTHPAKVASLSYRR
# Some of the results follow. Most values lie at the level of the controls, where differences are scatter.
# Compound: CN[C@@H]1C[C@H]2O[C@@](C)([C@@H]1OC)n1c3ccccc3c3c4c(c5c6ccccc6n2c5c31)C(=O)NC4 [staurosporine]
# Assay: log2 fold change of tryptic peptide abundance, ligand vs vehicle (limited proteolysis) (log2 ratio); higher = more trypsin-susceptible (destabilized)
# Settings: ligand concentration: 20 uM; sample: mouse liver crude lysate; replicate design: treated separately
row,Target,log2 fold change
1,"UniProt A6H5Z3 (peptide sequence: CLHIYSVLGAR, peptide start residue: 297)",0.324
2,"UniProt A2A8L1 (peptide sequence: VLIFSQMTK, peptide start residue: 1062)",0.407
3,"UniProt B1AUE5 (peptide sequence: ASQGSLLPGGR, peptide start residue: 124)",-0.0262
4,"UniProt B1AQJ2 (peptide sequence: FGNQEDAHEFLR, peptide start residue: 203)",-0.862
